Results are given in words; binding and its absence hold for the method and conditions named. Binding seen in cells or lysates may run through a third protein. Some entries that bind do so weakly or less than the wild type. Tags and fused reporters may be left off the sequences shown.
Biological target: T1, ANXA6-Flag (annexin A6 with Flag tag, exosomal) (UniProt P08133)
T1 sequence: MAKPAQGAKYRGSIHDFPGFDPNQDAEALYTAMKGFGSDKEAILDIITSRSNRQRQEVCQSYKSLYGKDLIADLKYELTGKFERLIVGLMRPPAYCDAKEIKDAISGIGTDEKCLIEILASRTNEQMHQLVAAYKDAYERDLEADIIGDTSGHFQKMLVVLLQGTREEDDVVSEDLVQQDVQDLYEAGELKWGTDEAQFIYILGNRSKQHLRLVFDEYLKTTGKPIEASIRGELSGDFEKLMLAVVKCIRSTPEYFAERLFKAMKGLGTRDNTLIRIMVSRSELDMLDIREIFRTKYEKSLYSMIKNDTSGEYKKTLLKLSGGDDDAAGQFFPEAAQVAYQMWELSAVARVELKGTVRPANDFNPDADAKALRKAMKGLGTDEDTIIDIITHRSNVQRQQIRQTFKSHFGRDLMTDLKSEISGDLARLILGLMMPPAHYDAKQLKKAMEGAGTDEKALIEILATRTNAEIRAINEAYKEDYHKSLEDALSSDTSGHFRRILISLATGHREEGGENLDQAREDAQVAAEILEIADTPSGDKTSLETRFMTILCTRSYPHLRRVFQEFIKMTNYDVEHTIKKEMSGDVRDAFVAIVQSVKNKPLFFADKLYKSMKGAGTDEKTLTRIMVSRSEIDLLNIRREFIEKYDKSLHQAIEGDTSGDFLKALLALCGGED
Assay: co-IP; lysates (RIPA buffer) of MDA-231 cells treated with 231-A6-Flag-exo; IP with anti-Flag, anti-ANXA6 or anti-EGFR antibody or IgG control on protein A agarose, 4 °C; western blot for ANXA6, Flag and EGFR

- binding: binds
Substance: EGFR (endogenous, MDA-231 cells) (from UniProt P00533 25-1210) (receptor)

— paper PMC8266800
